Data reported in the supplement of paper PMC6078165.

System: Hs578T
Assay: relative JC-1 red fluorescence (viability) vs pre-drug, coculture with fibroblast (fraction); higher = more viable cancer cells
Settings: 100 µM
Method: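 JC-1 labelled TNBC cells cocultured 1:1 (1,500 cells each) with CellTrace Violet stained primary or stromal fibroblasts in 384-well plates in FluoroBrite medium, treated with one of 42 anticancer drugs at 0.1, 1, 10 or 100 uM. JC-1 red fluorescence (mitochondrial integrity in cancer cells only) was read by plate reader every 8 h for 72 h. Values are normalised to each well's pre-drug value. The stock of one drug was tenfold lower, so its dose labels may be too high.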

N.N.[Cl][Pt][Cl] [Cisplatin]
Settings | relative JC-1 red fluorescence
8 h | 0.798
16 h | 0.506
24 h | 0.475
32 h | 0.454
40 h | 0.412
48 h | 0.383
56 h | 0.387
64 h | 0.362
72 h | 0.365

relative JC-1 red fluorescence
Settings | 8 h | 16 h | 24 h | 32 h | 40 h | 48 h | 56 h | 64 h | 72 h
coculture fibroblast: C12385 | 0.693 | 0.476 | 0.45 | 0.368 | 0.343 | 0.334 | 0.322 | 0.332 | 0.335
coculture fibroblast: H6013 | 0.739 | 0.543 | 0.476 | 0.441 | 0.409 | 0.4 | 0.378 | 0.369 | 0.354
coculture fibroblast: H6019 | 0.682 | 0.532 | 0.541 | 0.436 | 0.398 | 0.377 | 0.355 | 0.345 | 0.333
coculture fibroblast: H6076 | 0.869 | 0.583 | 0.502 | 0.489 | 0.449 | 0.441 | 0.426 | 0.413 | 0.413
coculture fibroblast: H6231 | 0.846 | 0.569 | 0.48 | 0.474 | 0.412 | 0.4008 | 0.382 | 0.3772 | 0.376
coculture fibroblast: HADF | 0.7999 | 0.614 | 0.541 | 0.51 | 0.488 | 0.482 | 0.458 | 0.451 | 0.43
coculture fibroblast: HCFa | 0.753 | 0.623 | 0.577 | 0.533 | 0.49 | 0.484 | 0.47 | 0.466 | 0.44
coculture fibroblast: HCPF | 0.89 | 0.639 | 0.5206 | 0.5021 | 0.454 | 0.442 | 0.452 | 0.421 | 0.42
coculture fibroblast: HHSteC | 0.783 | 0.595 | 0.542 | 0.515 | 0.491 | 0.475 | 0.463 | 0.453 | 0.437
coculture fibroblast: HMF | 0.849 | 0.56 | 0.488 | 0.473 | 0.425 | 0.405 | 0.394 | 0.38 | 0.37
coculture fibroblast: HPFa | 0.7462 | 0.597 | 0.552 | 0.513 | 0.485 | 0.472 | 0.449 | 0.438 | 0.414
coculture fibroblast: HUF | 0.753 | 0.583 | 0.586 | 0.491 | 0.445 | 0.429 | 0.411 | 0.408 | 0.403
coculture fibroblast: Hs27A | 0.871 | 0.74 | 0.685 | 0.645 | 0.619 | 0.622 | 0.586 | 0.575 | 0.54
coculture fibroblast: Hs343T | 0.8483 | 0.485 | 0.375 | 0.357 | 0.315 | 0.299 | 0.291 | 0.275 | 0.274
coculture fibroblast: WS1 | 0.74 | 0.61 | 0.581 | 0.466 | 0.416 | 0.405 | 0.384 | 0.386 | 0.383

Values are relative to the signal before dosing, not to a vehicle control; the signal also falls without drug.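 Labels refer to human fibroblasts, largely primary: uterine (C12385, HUF), lung (H6013), bone (Hs27A), adrenal (HADF), skin (WS1), plus mammary HMF and breast cancer-associated Hs343T. Cancer lines are basal-like or mesenchymal-like triple-negative breast cancer. The paper counts as hits responses shifting over 3x the replicate standard deviation. The tissue of the other fibroblasts is not given here.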
